From patent US7807788
Residue numbers refer to the chain shown, from its start. No constants are given. Whether binding was seen depends on the method and setting. Some entries that bind do so weakly or less than the wild type.

Amino acid sequences for entries named in this document (tags omitted). A change or cut given only in a name is not applied to a line headed by its entry.
UniProt P35225: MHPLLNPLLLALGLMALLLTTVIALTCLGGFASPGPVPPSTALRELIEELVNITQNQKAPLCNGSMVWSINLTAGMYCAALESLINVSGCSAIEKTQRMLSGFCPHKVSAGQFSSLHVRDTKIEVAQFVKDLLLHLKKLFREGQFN

B1: chimaeric 6A1 monoclonal antibody (antibody, human IgG1, V domains shown)
VH: EIQLQQSVAELVRPGASVRLSCTASGFYIKDTYMHWVIQRPEQGLEWIGTIDPANGNTKYVPKFQGKATITADTSSNTAYLRLSSLTSEDTAIYYCARSIYDDYHYDDYYAMDYWGQGTSVTVSS
VL: DVLMTQTPLSLPVSLGDQASISCRSSQNIVHINGNTYLEWYLQKPGQSPKLLIYKISDRFSGVPDRFSGSGSGTDFTLKISRVEAEDLGVYYCFQGSHVPWTFGGGTKLEIK
B2: mouse monoclonal antibody 6A1 (antibody, mouse IgG1, V domains shown)
VH: B1 VH
VL: B1 VL
B3: humanised anti-IL-13 antibody L1+A1 (antibody, human IgG1, kappa, V domains shown)
VH: QVQLVQSGAEVKKPGSSVKVSCKASGFYIKDTYMHWVRQAPGQGLEWMGTIDPANGNTKYVPKFQGRVTITADESTSTAYMELSSLRSEDTAVYYCARSIYDDYHYDDYYAMDYWGQGTLVTVSS
VL: DIVMTQSPLSLPVTPGEPASISCRSSQNIVHINGNTYLEWYLQKPGQSPRLLIYKISDRFSGVPDRFSGSGSGTDFTLKISRVEADDVGIYYCFQGSHVPWTFGQGTKLEIKR
B4: humanised anti-IL-13 antibody L2+A1 (antibody, human IgG1, kappa, V domains shown)
VH: B3 VH
VL: B3 VL with I90V

target: native (PBMC derived) human IL-13 (human) (UniProt P35225); experiment: ELISA on Th2 cell supernatant

binding, binds:
B1
B2
B3
B4

target: native (PBMC derived) human IL-13 (human) (UniProt P35225); experiment: sandwich ELISA: titrated supernatant of stimulated CD4+ Th2 cells as the source of native human IL-13, detected with the mAb

binding, binds:
B1
B2
B3
B4
